Legend:
[1] = Interference in common clinical chemical tests, Hitachi 747 analyzer; parameters: species or system human; conditions: 10 mmol/L d,1-GA or 5 mmol/L 1-GA, mean; for Creatinine: Hitachi 747 (enzymatic method); for AST / Albumin / Alk Phos / Bilirubin / Calcium / Chloride / Potassium / Protein / Sodium / Total CO2 / Urea / Glucose: Hitachi 747; for Glucose: plasma, six diabetic patients
[2] = Interference in common clinical chemical tests, Ortho-Clinical Diagnostics Vitros 250 analyzer; parameters: species or system human; conditions: 10 mmol/L d,1-GA or 5 mmol/L 1-GA, mean; for Creatinine: Vitros 250 (enzymatic method); for AST / Albumin / Alk Phos / Bilirubin / Calcium / Chloride / Potassium / Protein / Sodium / Total CO2 / Urea / Glucose: Vitros 250; for Glucose: plasma, six diabetic patients
[3] = Interference in common clinical chemical tests, Dade Behring RxL analyzer; parameters: species or system human; conditions: 10 mmol/L d,1-GA or 5 mmol/L 1-GA, mean; for Creatinine: Dade Behring RxL (alkaline picrate method); for AST / Albumin / Alk Phos / Bilirubin / Calcium / Chloride / Potassium / Protein / Sodium / Total CO2 / Urea / Glucose: Dade Behring RxL; for Glucose: plasma, six diabetic patients
[4] = test system: patient whole blood specimens; assay: Efficacy of d,1-GA in patient specimens: initial glucose vs glucose after 8 hours incubation; format: cell-based, human; conditions: 10 mmol/L d,1-GA, FIG. 3
Excerpt: Results are presented by plotting initial glucose concentration against glucose concentrations either in the presence or absence of d,1-GA (FIG. 3).

O=C[C@@H](O)CO [1-GA, 1-glyceraldehyde]
Creatinine [1]: 88 µmol/L | AST [1]: 29 U/L | Albumin [1]: 37 g/L | Alk Phos [1]: 84 U/L | Bilirubin [1]: 6.8 µmol/L | Calcium [1]: 2.1 µmol/L | Chloride [1]: 105 mmol/L | Potassium [1]: 4.6 mmol/L | Protein [1]: 63 g/L | Sodium [1]: 139 mmol/L | Total CO2 [1]: 26 mmol/L | Urea [1]: 5.7 µmol/L | Glucose [1]: 10.5 mmol/L | Creatinine [2]: 80 µmol/L | AST [2]: 35 U/L | Albumin [2]: 38 g/L | Alk Phos [2]: 77 U/L | Bilirubin [2]: 15.4 µmol/L | Calcium [2]: 2.2 µmol/L | Chloride [2]: 109 mmol/L | Potassium [2]: 4.6 mmol/L | Protein [2]: 66 g/L | Sodium [2]: 143 mmol/L | Total CO2 [2]: 25 mmol/L | Urea [2]: 6.4 µmol/L | Glucose [2]: 10.9 mmol/L | Creatinine [3]: 194 µmol/L | AST [3]: 26 U/L | Albumin [3]: 37 g/L | Alk Phos [3]: 76 U/L | Bilirubin [3]: 6.8 µmol/L | Calcium [3]: 2.2 µmol/L | Chloride [3]: 105 mmol/L | Potassium [3]: 4.5 mmol/L | Protein [3]: 66 g/L | Sodium [3]: 140 mmol/L | Total CO2 [3]: 24 mmol/L | Urea [3]: 5.4 µmol/L | Glucose [3]: 10.6 mmol/L

O=CC(O)CO (centres unmarked) [d,1-GA, d,1-glyceraldehyde]
Creatinine [1]: 80 µmol/L | AST [1]: 25 U/L | Albumin [1]: 36 g/L | Alk Phos [1]: 83 U/L | Bilirubin [1]: 6.8 µmol/L | Calcium [1]: 2.1 µmol/L | Chloride [1]: 105 mmol/L | Potassium [1]: 4.6 mmol/L | Protein [1]: 63 g/L | Sodium [1]: 139 mmol/L | Total CO2 [1]: 25 mmol/L | Urea [1]: 5.7 µmol/L | Glucose [1]: 10.5 mmol/L | slope, initial glucose vs glucose after 8 hours ([4]; linear regression): 1.01 | intercept, initial glucose vs glucose after 8 hours ([4]; without additive −2.2 mmol/L): 0.3 mmol/L | Creatinine [2]: 71 µmol/L | AST [2]: 33 U/L | Albumin [2]: 38 g/L | Alk Phos [2]: 76 U/L | Bilirubin [2]: 15.4 µmol/L | Calcium [2]: 2.1 µmol/L | Chloride [2]: 110 mmol/L | Potassium [2]: 4.6 mmol/L | Protein [2]: 65 g/L | Sodium [2]: 142 mmol/L | Total CO2 [2]: 25 mmol/L | Urea [2]: 6.4 µmol/L | Glucose [2]: 10.9 mmol/L | Creatinine [3]: 327 µmol/L | AST [3]: 23 U/L | Albumin [3]: 37 g/L | Alk Phos [3]: 76 U/L | Bilirubin [3]: 8.6 µmol/L | Calcium [3]: 2.2 µmol/L | Chloride [3]: 105 mmol/L | Potassium [3]: 4.5 mmol/L | Protein [3]: 65 g/L | Sodium [3]: 140 mmol/L | Total CO2 [3]: 24 mmol/L | Urea [3]: 5.4 µmol/L | Glucose [3]: 10.5 mmol/L

— patent US6632844B1, “Methods and compositions for preserving glucose level in blood specimens” (Washington University, priority 2000, dated 2003)
